Data on 56 compounds can be found in the supplement of paper PMC11150407.

The term cell viability denotes a read-out of living cells in per cent, often relative to untreated cells.

In all, about 2,100 compounds went through this assay and about 180 (8.6%) showed an effect of 50% or more. This is one part of the list.

This assay relates to MOLM1 and UCSD/AML1 (averaged). Nature of the assay: cell viability relative to DMSO control (POC); higher = less growth inhibition. The settings on record: 1 µM; 72 h. The method, then:
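Primary viability screen in the 3q26 EVI1-high AML cell lines MOLM1 and UCSD/AML1 (1.5e3 cells/well, 384-well), compounds at 1 uM for 72 h. ATP CellTiter-Glo read-out given as percent of viable cells over DMSO control (POC), averaged over duplicates. DMSO was the negative control and 5 uM etoposide the positive control. This mapping covers the MicroSource Spectrum and Selleck anticancer libraries (drug names).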
`CC1=C(C(=O)O)N2C(=O)[C@@H](NC(=O)[C@H](N)C3=CCC=CC3)[C@H]2SC1`: the cell viability turned out to be 105%.

Regarding `N[C@@H](CCC(=O)N[C@@H](CS)C(=O)NCC(=O)O)C(=O)O`, the cell viability amounted to 95.1%.

For the compound `COc1cc2c3cc1Oc1cc(ccc1O)C[C@@H]1c4c(cc(OC)c(O)c4Oc4ccc(cc4)C[C@@H]3N(C)CC2)CC[N+]1(C)C`, the cell viability was 100%.

With `Cc1ncc(CO)c(CO)c1O`, the cell viability was 99.4%.

Regarding `COc1ccc2cc([C@H](C)CO)ccc2c1`, the cell viability came out at 103%.

Turning to `C#C[C@]1(OC(C)=O)CC[C@H]2[C@@H]3CCC4=CC(=NO)CC[C@@H]4[C@H]3CC[C@@]21CC` (mixture of isomers), the cell viability stood at 91.3%.

With `Clc1ccc(CO/N=C(\Cn2ccnc2)c2ccc(Cl)cc2Cl)c(Cl)c1`, the cell viability was found to be 100%.

As to `CC(=O)O[C@]1(C(C)=O)CC[C@H]2[C@@H]3C=C(Cl)C4=CC(=O)[C@@H]5C[C@@H]5[C@]4(C)[C@H]3CC[C@@]21C`, the cell viability came out at 102%.

On to `CC(C)c1cc(-c2n[nH]c(=O)n2-c2ccc3c(ccn3C)c2)c(O)cc1O` [Ganetespib (STA-9090)], for which the cell viability turned out to be 2.49%.

Take `N[C@@H]1CONC1=O`: the cell viability was 95.6%.

On to `O=C(O)COCCN1CCN(C(c2ccccc2)c2ccc(Cl)cc2)CC1` (stereo unspecified), for which the cell viability was 103%.

For the compound `CC(C)n1nc(-c2ccc3oc(N)nc3c2)c2c(N)ncnc21`, the cell viability is 21.6%.

On to `CCCCCCCCCCCCCCCC(=O)OC[C@@H](NC(=O)C(Cl)Cl)[C@H](O)c1ccc([N+](=O)[O-])cc1`, for which the cell viability is 96.2%.

Take `CCCCc1nc2cc(/C=C/C(=O)NO)ccc2n1CCN(CC)CC` [SB939 (Pracinostat)]: the cell viability is 1.57%.

As for `O=C(O)/C=C/c1ccc(O)c(O)c1`, the cell viability turned out to be 90.5%.

Consider `COc1cc2nc(N(C)CCCNC(=O)C3CCCO3)nc(N)c2cc1OC` (stereo unspecified), for which the cell viability came to 86.8%.

For `CC1(C)S[C@@H]2[C@H](NC(=O)[C@H](NC(=O)N3CCNC3=O)c3ccccc3)C(=O)N2[C@H]1C(=O)O`, the cell viability amounted to 101%.

Regarding `COc1c(-c2coc3cc4c(cc3c2=O)CC(OC(C)=O)C(C)(C)O4)ccc2c1C=CC(C)(C)O2` (stereo unspecified), the cell viability was 88.7%.

For `CCCCCCCCCc1ccc(OCCOCCOCCOCCOCCOCCOCCOCCOCCO)cc1`, the cell viability came to 37.9%.

Consider `NC(=O)c1cc[n+](CC2=C(C(=O)O)N3C(=O)[C@@H](NC(=O)[C@@H](c4ccccc4)S(=O)(=O)[O-])[C@H]3SC2)cc1`, for which the cell viability is 116%.

Regarding `COC(=O)Nc1nc2cc(C(=O)c3ccccc3)ccc2[nH]1`, the cell viability is 16.8%.

For the compound `CCCCCCc1ccc(O)cc1O.Nc1c2ccccc2nc2ccccc12`, the cell viability amounted to 46.4%.

As to `Cc1onc(-c2c(Cl)cccc2Cl)c1C(=O)N[C@@H]1C(=O)N2[C@@H]1SC(C)(C)[C@@H]2C(=O)O`, the cell viability stood at 100%.

As for `COc1cc(OC)c(C(C)=O)c(O)c1C`, the cell viability is 111%.

`Cc1cc(O)c(C=O)c2c1C(=O)Oc1c(C)c(O)c3c(c1O2)C(O)OC3=O` (stereo unspecified): the cell viability is 97.7%.

`C[N+](C)(C)CCCCCC[N+](C)(C)C`: the cell viability stood at 114%.

On to `CN(C)/N=N/c1[nH]cnc1C(N)=O`, for which the cell viability worked out at 103%.

With `CN(C)/N=N/c1[nH]cnc1C(N)=O` [Dacarbazine (DTIC-Dome)], the cell viability is 86.2%.

For `COc1ccc(C(Cl)=C(c2ccc(OC)cc2)c2ccc(OC)cc2)cc1`, the cell viability is 99.1%.

Regarding `O=C(O)c1cccc(O)c1O`, the cell viability was determined as 107%.

In the case of `CC(CCc1ccccc1)NCC(O)c1ccc(O)c(C(N)=O)c1` (stereo unspecified), the cell viability amounted to 110%.

In the case of `CCOC(=O)[C@H](CCc1ccccc1)N[C@@H](C)C(=O)N1Cc2ccccc2C[C@H]1C(=O)O`, the cell viability amounted to 91.6%.

As to `CN(C)CCCN1c2ccccc2Sc2ccccc21`, the cell viability is 97.3%.

On to `Cc1cc(C(C)(C)C)c(O)c(C)c1CC1=NCCN1`, for which the cell viability stood at 100%.

With `COC(=O)[C@H](OC(C)=O)[C@H]1C(C)(C)[C@H](OC(C)=O)[C@@H]2CC3=C4CC(=O)O[C@@H](c5ccoc5)[C@]4(C)CC[C@@H]3[C@@]1(C)C2=O`, the cell viability turned out to be 94.8%.

On to `C=CC(C1=CC(=O)C=CC1=O)c1ccccc1` (stereo unspecified), for which the cell viability turned out to be 103%.

`O=c1cc(N2CCOCC2)oc2c(-c3cccc4c3sc3ccccc34)cccc12`: the cell viability came to 56.1%.

On to `CC(C)(C(=O)O)c1ccc(C(O)CCCN2CCC(C(O)(c3ccccc3)c3ccccc3)CC2)cc1` (stereo unspecified), for which the cell viability turned out to be 88.4%.

In the case of `C[N+]1(C)[C@@H]2CC[C@H]1C[C@@H](OC(=O)C(O)c1ccccc1)C2` (stereo partly specified), the cell viability came to 101%.

Turning to `COc1ccc2c(c1)OC1(O)COc3cc(OC)c(OC)cc3C1=C2` (stereo unspecified), the cell viability worked out at 102%.

In the case of `COc1ccc2c(=O)c(-c3cc4c(cc3OC)OCO4)coc2c1`, the cell viability was found to be 99.7%.

For the compound `COc1ccc2c(c1)OC/C(=C\c1ccc(OC)c(O)c1)C2=O`, the cell viability was determined as 18.3%.

Turning to `C[C@]1(OC(=O)/C=C/c2ccccc2)C[C@@H](O)[C@]2(O)C=CO[C@@H](O[C@@H]3O[C@H](CO)[C@@H](O)[C@H](O)[C@H]3O)[C@@H]21`, the cell viability was found to be 95%.

For the compound `COC(=O)[C@H]1[C@H]2C[C@H]3c4[nH]c5ccccc5c4CCN3C[C@@H]2CC[C@@H]1O`, the cell viability worked out at 98.8%.

As for `CNCCCC1c2ccccc2C=Cc2ccccc21`, the cell viability is 84.4%.

Consider `CC1(C)C(=O)C=C[C@]2(C)[C@H]3CC[C@@]4(C)[C@H](c5ccoc5)OC(=O)[C@H]5O[C@]54[C@]3(C)C(=O)C[C@@H]12`, for which the cell viability was 84.7%.

With `C[C@]12CCC(=O)C=C1CC[C@@H]1[C@@H]2[C@@H](O)C[C@@]2(C)[C@H]1CC[C@]2(O)C(=O)CO` [Hydrocortisone (Cortisol)], the cell viability worked out at 81.3%.

As for `C[C@]12CCC(=O)C=C1CC[C@@H]1[C@@H]2[C@@H](O)C[C@@]2(C)[C@H]1CC[C@]2(O)C(=O)CO`, the cell viability was determined as 81.8%.

Take `Oc1ncnc2[nH]ncc12`: the cell viability was found to be 101%.

As to `CO/N=C(\C(=O)N[C@@H]1C(=O)N2C(C(=O)OCOC(=O)C(C)(C)C)=C(/C=C\c3scnc3C)CS[C@H]12)c1csc(N)n1`, the cell viability worked out at 96.7%.

On to `CCC(=O)N1CCN(c2ccc(-n3c(=O)ccc4cnc5ccc(-c6cnc7ccccc7c6)cc5c43)cc2C(F)(F)F)CC1` [Torin 1], for which the cell viability worked out at 20.8%.

As to `CN(N=O)C(=O)N[C@H]1C(O)O[C@H](CO)[C@@H](O)[C@@H]1O` (mixture of isomers), the cell viability is 102%.

Take `CCCc1cc(=O)[nH]c(=S)[nH]1`: the cell viability stood at 95.7%.

Regarding `COc1ccc(CCN(C)CCCC(C#N)(c2ccc(OC)c(OC)c2)C(C)C)cc1OC` (stereo unspecified), the cell viability turned out to be 95.4%.

As to `CC1=C(CCC(=O)O)c2cc3[nH]c(cc4nc(cc5[nH]c(cc1n2)c(C)c5C(C)O)C(C)=C4C(C)O)c(C)c3CCC(=O)O` (stereo unspecified), the cell viability turned out to be 107%.

For `Fc1ccc(C(c2ccc(F)cc2)N2CCN(C/C=C/c3ccccc3)CC2)cc1`, the cell viability worked out at 103%.
